The labels stand for the following.
B1: Rpb7; numbered along this chain (parent)
chain: MFFIKDLSLNITLHPSFFGPRMKQYLKTKLLEEVEGSCTGKFGYILCVLDYDNIDIQRGRILPTDGSAEFNVKYRAVVFKPFKGEVVDGTVVSCSQHGFEVQVGPMKVFVTKHLMPQDLTFNAGSNPPSYQSSEDVITIKSRIRVKIEGCISQVSSIHAIGSIKEDYLGAI

Variants of B1 are the subject of data set [1]. As to the kind of experiment: log2 fold change of mutant abundance, UV-irradiated vs unirradiated; higher = more UV resistant (enriched after UV). Conditions: with Saccharomyces cerevisiae rad7Δ rad26Δ; UV dose (J/m2): 10; genetic background: rad7Δ rad26Δ rpb7Δ + plasmid RPB7 library; outgrowth: 10 cell divisions. The protocol: (§1)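 Error-prone PCR random mutant library of yeast RPB7 (codons 2-171) on a LEU2 plasmid, shuffled into rad7Δ rad26Δ S. cerevisiae (BJ5465 background) with genomic RPB7 deleted. Cells were irradiated with 10 J/m2 UV (254 nm) or left unirradiated and grown for 10 divisions. Plasmid RPB7 amplicons were Illumina-sequenced and per-codon amino-acid counts were compared UV vs no UV with NOISeq (3 repeats, ARSyNseq batch correction). Positive log2FC means enrichment after UV, i.e. UV resistance / derepressed TCR.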

Variants of B1 are the subject of data set [2]. The experiment in a line: NOISeq theta enrichment statistic, UV-irradiated vs unirradiated (dimensionless); higher = more UV resistant (enriched after UV). The conditions noted are these: with Saccharomyces cerevisiae rad7Δ rad26Δ; UV dose (J/m2): 10; genetic background: rad7Δ rad26Δ rpb7Δ + plasmid RPB7 library; outgrowth: 10 cell divisions. The protocol: as §1

Single values of this set are uncertain.

Regarding V48F, in data set [1], the “log2 fold change of mutant abundance” value worked out at 0.0859. The “NOISeq theta enrichment statistic” value in data set [2] was 0.241.
For V48L, in that order: 0.00204 and 0.00262.
Consider V48C, for which the “log2 fold change of mutant abundance” value in data set [1] was found to be 0.0251. Besides, the “NOISeq theta enrichment statistic” value in data set [2] is 0.0166.
On the same counts, the results for V48S are -0.0139 and -0.0147.
On the same counts, the results for E134Q are -0.237 and -0.282.
On the same counts, the results for E134D are 0.168 and 0.731.
On to E134R, for which, in data set [1], the “log2 fold change of mutant abundance” value was determined as 0.0432. Also, in data set [2], the “NOISeq theta enrichment statistic” value came to 0.0399.
On the same counts, the results for Q24A are 0.0329 and 0.0155.
For K41G, in that order: 1.29 and 0.654.
For the variant K41A, the “log2 fold change of mutant abundance” value in data set [1] came to 0.795. For the same variant, the “NOISeq theta enrichment statistic” value in data set [2] is 0.575.
On the same counts, the results for K41M are 0.0751 and 0.0325.
Consider K41D, for which the “log2 fold change of mutant abundance” value in data set [1] is -0.227. The “NOISeq theta enrichment statistic” value in data set [2] is -0.0912.
On the same counts, the results for G98C are 0.24 and 0.245.
V136G: the “log2 fold change of mutant abundance” value in data set [1] came to 0.0144. Also, the “NOISeq theta enrichment statistic” value in data set [2] came to 0.0246.
For V136C, in that order: -0.00552 and -0.00492.
On the same counts, the results for E165V are -0.126 and -0.192.
As for I137F, in data set [1], the “log2 fold change of mutant abundance” value was -0.121. Moreover, the “NOISeq theta enrichment statistic” value in data set [2] was -0.361.
For G124V, in that order: 0.0643 and 0.124.
On the same counts, the results for G124A are 0.116 and 0.228.
Regarding G124S, the “log2 fold change of mutant abundance” value in data set [1] turned out to be 0.212. Further, the “NOISeq theta enrichment statistic” value in data set [2] worked out at 0.613.
For N71I, in that order: 0.0219 and 0.0899.
On the same counts, the results for I147S are -0.101 and -0.147.
On the same counts, the results for E69Y are -0.0868 and -0.0679.
Take E69A: the “log2 fold change of mutant abundance” value in data set [1] was -0.143. Further, the “NOISeq theta enrichment statistic” value in data set [2] is -0.514.
For D55E, in that order: 0.171 and 0.48.
For D55K, in that order: -0.152 and -0.119.
Regarding D55G, the “log2 fold change of mutant abundance” value in data set [1] was -0.103. Moreover, the “NOISeq theta enrichment statistic” value in data set [2] is -0.323.
For S133Y, in that order: -0.0978 and -0.335.
For S133D, in that order: -1.1 and -0.77.
On the same counts, the results for N53F are 0.00203 and 0.00122.
As for Q102D, in data set [1], the “log2 fold change of mutant abundance” value stood at 0.241. Besides, the “NOISeq theta enrichment statistic” value in data set [2] stood at 0.22.
For Q102T, in that order: 0.0287 and 0.0475.
For Q102E, in that order: -0.0177 and -0.059.
For I157S, in that order: 0.208 and 0.341.
Consider F99N, for which the “log2 fold change of mutant abundance” value in data set [1] is -0.311. Further, in data set [2], the “NOISeq theta enrichment statistic” value is -0.282.
On to F99E, for which the “log2 fold change of mutant abundance” value in data set [1] came out at 0.234. For the same variant, the “NOISeq theta enrichment statistic” value in data set [2] turned out to be 0.168.
For I143T, in that order: 0.269 and 0.542.
For F79Y, in that order: 0.0138 and 0.0854.
In the case of F79C, the “log2 fold change of mutant abundance” value in data set [1] is -0.145. In data set [2], the “NOISeq theta enrichment statistic” value is -0.336.
For R144S, in that order: 0.108 and 0.223.
Turning to L46F, the “log2 fold change of mutant abundance” value in data set [1] was 0.0297. Further, the “NOISeq theta enrichment statistic” value in data set [2] amounted to 0.0932.
Turning to L46H, the “log2 fold change of mutant abundance” value in data set [1] was -0.122. In data set [2], the “NOISeq theta enrichment statistic” value is -0.351.
On the same counts, the results for T111N are 0.261 and 0.371.
On the same counts, the results for T111E are -0.0161 and -0.0219.
On the same counts, the results for M22K are -0.24 and -0.429.
Take M22E: the “log2 fold change of mutant abundance” value in data set [1] was -1.13. In data set [2], the “NOISeq theta enrichment statistic” value was -0.607.
Take F82R: the “log2 fold change of mutant abundance” value in data set [1] was -0.635. Further, in data set [2], the “NOISeq theta enrichment statistic” value is -0.425.
Consider D6N, for which the “log2 fold change of mutant abundance” value in data set [1] was 0.116. Also, the “NOISeq theta enrichment statistic” value in data set [2] is 0.182.
L49V: in data set [1], the “log2 fold change of mutant abundance” value is 0.0626. Also, in data set [2], the “NOISeq theta enrichment statistic” value is 0.0782.
On the same counts, the results for I163Y are -0.215 and -0.157.
Regarding I163S, the “log2 fold change of mutant abundance” value in data set [1] was -0.203. Moreover, the “NOISeq theta enrichment statistic” value in data set [2] was -0.212.
V103Y: the “log2 fold change of mutant abundance” value in data set [1] was found to be 0.368. In data set [2], the “NOISeq theta enrichment statistic” value is 0.322.
For V92D, in that order: -0.00661 and -0.0178.
In the case of V92M, the “log2 fold change of mutant abundance” value in data set [1] worked out at 0.0861. In data set [2], the “NOISeq theta enrichment statistic” value is 0.0754.
K112L: in data set [1], the “log2 fold change of mutant abundance” value was 0.115. The “NOISeq theta enrichment statistic” value in data set [2] turned out to be 0.0458.
For D135Y, in that order: -0.205 and -0.476.
For K73I, in that order: -0.264 and -0.161.

The values above are taken from the supplement of paper PMC10382679.
